In PubChem BioAssay AID504648 (National Center for Advancing Translational Sciences (NCATS), 2011):
Several values for one entry are separate records, joined by “and”; a condition that tells them apart may be missing. Identical values can stand only once. Screen size: about 390,000 compounds; about 610 (0.16%) were called active. The shares of active, inactive and inconclusive entries below differ from those in the screen. Calls come from the whole dose curve; as a rule, active = well fitted inhibition curve with a large enough effect; inconclusive = small, poorly fitted or top-dose-only effect, or effect the other way, or another doubt; inactive = no such curve, though single readings can be large or run the other way. Potencies beside an inconclusive call are fits to weak or partial responses and may not hold up.
% is set by controls: 0 for no effect and ±100 for the full control effect; potency is the fitted concentration of half-maximal effect.

Assay: Nrf2 qHTS screen for inhibitors: counterscreen for cytotoxicity
Details: A549 ARE-Fluc cells, CellTiter-Fluor viability, 18-24 h; activity change, negative = cytotoxicity: at 46 µM (top of the series)
Outline: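 A549 ARE-Fluc cells in 5% FBS OPTI-MEM, 5000 cells/well, rested 2 h then exposed to compounds in concentration-response for 18-24 h at 37 °C. Viability by CellTiter-Fluor fluorescence (Ex 405/Em 525) after 30 min; luciferase luminescence (BugLite, 15 min, RT) read afterwards.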
For O=C(CC(SCc1ccco1)c1ccc(O)cc1)c1cccs1 (stereo not given), the Potency was inconclusive: 18.4 µM [falling, partial curve, poor fit]. With COC(=O)c1ccc(N=NN2CCCCCC2)cc1 the Potency was inconclusive: 23.1 µM [activator, partial curve, poor fit]. For Cc1ccccc1Cn1ccc(NC(=O)c2cnn3c2NC(c2ccccc2)CC3C(F)(F)F)n1 (stereo not given), the Potency was inconclusive: 10.3 µM [falling, partial curve, poor fit]. For CCN1C(=O)c2cccc3c(S(=O)(=O)NCc4cccnc4)ccc1c23, the Potency was inconclusive: 29.1 µM [activator, single point]. For O=C1/C(=C\c2cc([N+](=O)[O-])ccc2O)SC(=S)N1Cc1ccc(Cl)cc1, the Potency was inconclusive: 23.1 µM [falling, partial curve, poor fit]. For O=C(CCc1ccccc1)NCCC1=CCCCC1, the “activity change, negative = cytotoxicity” value was inactive: 1.5%. With COC(=O)c1sc(-c2ccc(Cl)cc2)cc1NC(=O)/C=C/C(=O)O the “activity change, negative = cytotoxicity” value was inactive: -15.1%. With O=C1N[C@@H](c2ccccc2)COC(=O)[C@H](Cc2ccc(F)cc2)CC/C=C/C[C@@H]1CC(=O)N(CCO)Cc1ccccc1 the Potency was inconclusive: 20.6 µM [falling, single point]. For CCOC(=O)c1cc(-c2ccc(F)cc2)n(CCC(=O)NC2CCN(Cc3ccccc3)CC2)c1C, the Potency was inconclusive: 32.6 µM [falling, partial curve, poor fit]. In the case of C=CCOc1ccc(C2CC(C)=NN2c2ccccc2)cc1 (stereo not given), the Potency is reported as inconclusive: 18.4 µM [activator, partial curve, poor fit]. With O=S(=O)(Nc1cccc2ncccc12)c1cccs1 the Potency was inconclusive: 29.1 µM [falling, single point]. With CC1Cc2ccccc2N1C(=O)CSc1nc(-c2ccccc2)cs1 (stereo not given) the “activity change, negative = cytotoxicity” value was inactive: 7.62%. With O=C(Nc1ccc2ccccc2c1)Nc1ccc2snnc2c1 the Potency was inconclusive: 29.1 µM [falling, single point]. In the case of CCC(=O)NCCCCNC(=O)CC, the Potency is reported as inconclusive: 6.51 µM [activator, partial curve, poor fit]. With Cc1ccc(NC(=O)CC2C(=O)N(Cc3ccccc3)C(=S)N2NC(=O)c2cccc(F)c2)c(C)c1 (stereo not given) the Potency was inconclusive: 32.6 µM [falling, partial curve, poor fit]. With COC(=O)c1cc(OC)c(OC)cc1NC(=O)C(C)Sc1ccc(C)cc1 (stereo not given) the “activity change, negative = cytotoxicity” value was inactive: -2.79%. In the case of COc1ccccc1OCC(=O)N(Cc1ccc(N(C)C)cc1)CC1CCCO1 (stereo not given), the “activity change, negative = cytotoxicity” value is reported as inactive: -6.99%. In the case of C/C(=N\NC(=O)c1cc(C)nc2ccccc12)c1ccccn1, the Potency is reported as inconclusive: 2.31 µM [falling, full curve]. For O=C(c1c(F)cccc1F)N(Cc1ccccn1)C1CCCC1, the Potency was inconclusive: 4.11 µM [falling, single point]. In the case of Cc1ccc(C)c(OCC(=O)O/N=C(\N)c2ccccn2)c1, the “activity change, negative = cytotoxicity” value is reported as inactive: 11.9%. With CCOC(=O)c1c(NC(=O)CCCOc2ccc(C(C)(C)C)cc2)sc2c1CCC2 the “activity change, negative = cytotoxicity” value was inactive: 4.83%. In the case of CCc1cccc(NC(=O)C2CCCN2S(=O)(=O)c2ccccc2C(F)(F)F)c1 (stereo not given), the Potency is reported as inconclusive: 23.1 µM [falling, partial curve, poor fit]. For Cc1cccc(NC(=S)NCCN(C2CCCCC2)C2CCCC2)c1, the Potency was inconclusive: 6.51 µM [falling, partial curve]. For CC(C)(C)c1cc(CCC(=O)N2CCCC2)cc(C(C)(C)C)c1O, the Potency was inconclusive: 18.4 µM [falling, single point]. For N[C@@H](Cc1ccccc1)c1nnc(SCc2ccccc2F)o1, the Potency was inconclusive: 29.1 µM [falling, partial curve, poor fit]. In the case of COc1ccc(-c2csc(NC(=O)CSc3nc(C)cs3)n2)cc1, the Potency is reported as inconclusive: 6.51 µM [activator, partial curve, poor fit]. For Cn1nc(C(=O)N2CCN(c3ccccc3)CC2)c2c1-c1ccccc1SC2, the Potency was inconclusive: 13 µM [falling, partial curve, poor fit]. In the case of NNC(=O)c1csc(Cc2c(Cl)sc3ccc(Cl)cc23)n1, the “activity change, negative = cytotoxicity” value is reported as inactive: -3.76%. For Cc1ccccc1C(=O)Nc1ccc(C(=O)N/N=C/c2ccc(O)cc2)cc1, the Potency was inconclusive: 18.4 µM [falling, partial curve, poor fit]. For Cc1ccc(C2CCN(C(=O)c3cnn(-c4ccccc4Cl)c3C3CCN(C(=O)OC(C)(C)C)CC3)C2)cc1 (stereo not given), the Potency was inconclusive: 25.9 µM [falling, single point]. For O=C(N/N=C/c1cc([N+](=O)[O-])ccc1O)C1CC1, the Potency was inconclusive: 1.16 µM [falling, partial curve, poor fit]. In the case of CN(C)c1ccc(N=Nc2ccccc2C(=O)OCC(=O)N(C)c2ccccc2)cc1, the Potency is reported as inconclusive: 16.4 µM [falling, single point]. For Cc1ccc(C[n+]2cc(-c3ccc(Cl)cc3)n3c2CCC3)cc1, the “activity change, negative = cytotoxicity” value was inactive: -1.05%. For CCC(=O)NC(=S)Nc1ccccc1F, the “activity change, negative = cytotoxicity” value was inactive: -0.42%. For O=C(CCc1ccccc1)N1CCN(c2ccc([N+](=O)[O-])cc2)CC1, the Potency was inconclusive: 25.9 µM [falling, partial curve, poor fit]. For C#CCOCCOCCOCCNc1nc(N2CCN(C(=O)CCCCCCCCCCNC(=O)[C@H]([C@@H](C)CC)n3cc(CCCCCN)nn3)CC2)nc(N2CCN(C(=O)CCCCCCCCCCNC(=O)[C@H](CCCCN)n3cc(CCCC(=O)O)nn3)CC2)n1, the “activity change, negative = cytotoxicity” value was inactive: -13.8%. In the case of COc1ccc(Cl)cc1NC(=O)CS(=O)(=O)c1cccc2nsnc12, the “activity change, negative = cytotoxicity” value is reported as inactive: 1.26%. In the case of Cc1ccc(NC(=O)C2CCCN(S(=O)(=O)c3cccc4cccnc34)C2)cc1Cl (stereo not given), the Potency is reported as inconclusive: 20.6 µM [falling, single point]. With COc1ccc(C(=O)Sc2ccc(C)cc2)cc1OC the “activity change, negative = cytotoxicity” value was inactive: -14.2%. With CN(CCO)c1ccc(C=NNc2ccc([N+](=O)[O-])cc2S(=O)(=O)Nc2ccccc2C(=O)O)cc1 the Potency was inconclusive: 18.4 µM [falling, single point]. For NC(=O)CN1CCN(C(=O)Nc2ccccc2)CC1, the Potency was inconclusive: 29.1 µM [activator, single point]. In the case of Cc1ccc(N2CC(c3nnc(Cc4ccc(Cl)cc4)o3)CC2=O)cc1 (stereo not given), the Potency is reported as inconclusive: 20.6 µM [activator, partial curve, poor fit]. In the case of CN(C)c1ccc(C=c2c3cc(O)ccc3n3c2cc(-c2ccccc2)[n+]3C)cc1, the Potency is reported as inconclusive: 23.1 µM [falling, single point]. With Cc1ccc(NC(=O)CCC(=O)N/N=C/c2ccc(O)cc2O)cc1 the “activity change, negative = cytotoxicity” value was inactive: 1.49%. In the case of CCOc1ccc(OCCC(=O)OCC(=O)NNC(=O)c2ccccc2)cc1, the “activity change, negative = cytotoxicity” value is reported as inactive: 8.23%. With Cc1oncc1-c1csc(-c2ccccc2)n1 the Potency was inconclusive: 23.1 µM [activator, partial curve, poor fit]. For COc1ccc(-n2c(C)cc(/C=C/c3nc(O)c([N+](=O)[O-])c(=O)[nH]3)c2C)cc1, the Potency was inconclusive: 29.1 µM [falling, partial curve, poor fit]. In the case of Cc1[nH]n(-c2nc(-c3ccc(Cl)cc3)cs2)c(=O)c1N=Nc1ccc(O)cc1, the Potency is reported as active: 14.6 µM. For CCOC(=O)c1cnc(-n2nc(C)cc2C)nc1NCc1ccccc1, the Potency was inconclusive: 29.1 µM [falling, partial curve, poor fit]. In the case of Cc1c(Cl)cccc1NC(=O)CN1C(=O)c2ccccc2Sc2ncccc21, the “activity change, negative = cytotoxicity” value is reported as inactive: -0.446%. In the case of CCN(c1ccccc1)S(=O)(=O)c1cccc(C(=O)NCc2ccncc2)c1, the “activity change, negative = cytotoxicity” value is reported as inactive: -0.727%. In the case of O=C(OCc1c(-c2ccccc2)ncc2ccccc12)c1cccs1, the Potency is reported as inconclusive: 20.6 µM [falling, single point]. With O=C(Nc1ccccc1)c1ccc2nc(-c3ccco3)c(-c3ccco3)nc2c1 the Potency was inconclusive: 29.1 µM [falling, partial curve, poor fit] and inconclusive: 25.9 µM [falling, partial curve, poor fit]. In the case of Cc1ccc(CNC(=O)c2ccc3c(=O)c(O)c(-c4ccc(C)cc4)[nH]c3c2)cc1, the Potency is reported as inconclusive: 23.1 µM [activator, single point]. For O=C(N/N=C/c1ccc([N+](=O)[O-])o1)c1cc(-c2cccc(Br)c2)nc2ccccc12, the Potency was inconclusive: 35.5 µM [falling, single point]. With O=C(O)CCCCCN1C(=O)/C(=C\c2cn(-c3ccccc3)nc2-c2cccs2)SC1=S the Potency was inconclusive: 23.1 µM [falling, single point]. For CCOC(=O)C1=C(c2ccccc2)N=c2s/c(=C\c3ccco3)c(=O)n2C1c1cccs1 (stereo not given), the Potency was inconclusive: 25.9 µM [falling, single point]. With COc1cccc(F)c1C(C[N+](=O)[O-])c1c(N)n(C)c(=O)n(C)c1=O (stereo not given) the Potency was inconclusive: 29.1 µM [falling, single point]. In the case of Cc1cccc(/C=c2\s/c(=C\C(=O)C(C)(C)C)[nH]c2=O)c1, the Potency is reported as inconclusive: 18.4 µM [falling, single point]. For CCOc1ccc(CCNC(=O)C2CCCN(c3nnc(C)c4c(C)n(-c5ccccc5)nc34)C2)cc1 (stereo not given), the “activity change, negative = cytotoxicity” value was inactive: -27.1%. With CCC1CCCCN1CCNC(=O)C1CCN(S(=O)(=O)c2cccc3nsnc23)CC1 (stereo not given) the “activity change, negative = cytotoxicity” value was inactive: -1.57%. For Cc1ccc(Sc2c(C=O)c3ccccc3n2C)cc1, the Potency was inconclusive: 29.1 µM [falling, single point]. For CCN1c2ccccc2NC2N=C(OC)C(c3ccccc3)C21 (stereo not given), the Potency was active: 20.6 µM. In the case of Cc1noc(C)c1COc1ccc(C(=O)NNC(=O)c2ccccc2F)cc1, the “activity change, negative = cytotoxicity” value is reported as inactive: -14.3%. For CC(=O)c1ccc(NS(=O)(=O)c2c(C)cc(C)cc2C)cc1, the Potency was inconclusive: 29.1 µM [falling, partial curve, poor fit].
